Measured values: paper doi:10.1101/090100
Results are given in words; binding and its absence hold for the method and conditions named. In cells and extracts the contact can be indirect.

By UniProt entry, the sequences of proteins in these tests, tags left out.
UniProt O95071: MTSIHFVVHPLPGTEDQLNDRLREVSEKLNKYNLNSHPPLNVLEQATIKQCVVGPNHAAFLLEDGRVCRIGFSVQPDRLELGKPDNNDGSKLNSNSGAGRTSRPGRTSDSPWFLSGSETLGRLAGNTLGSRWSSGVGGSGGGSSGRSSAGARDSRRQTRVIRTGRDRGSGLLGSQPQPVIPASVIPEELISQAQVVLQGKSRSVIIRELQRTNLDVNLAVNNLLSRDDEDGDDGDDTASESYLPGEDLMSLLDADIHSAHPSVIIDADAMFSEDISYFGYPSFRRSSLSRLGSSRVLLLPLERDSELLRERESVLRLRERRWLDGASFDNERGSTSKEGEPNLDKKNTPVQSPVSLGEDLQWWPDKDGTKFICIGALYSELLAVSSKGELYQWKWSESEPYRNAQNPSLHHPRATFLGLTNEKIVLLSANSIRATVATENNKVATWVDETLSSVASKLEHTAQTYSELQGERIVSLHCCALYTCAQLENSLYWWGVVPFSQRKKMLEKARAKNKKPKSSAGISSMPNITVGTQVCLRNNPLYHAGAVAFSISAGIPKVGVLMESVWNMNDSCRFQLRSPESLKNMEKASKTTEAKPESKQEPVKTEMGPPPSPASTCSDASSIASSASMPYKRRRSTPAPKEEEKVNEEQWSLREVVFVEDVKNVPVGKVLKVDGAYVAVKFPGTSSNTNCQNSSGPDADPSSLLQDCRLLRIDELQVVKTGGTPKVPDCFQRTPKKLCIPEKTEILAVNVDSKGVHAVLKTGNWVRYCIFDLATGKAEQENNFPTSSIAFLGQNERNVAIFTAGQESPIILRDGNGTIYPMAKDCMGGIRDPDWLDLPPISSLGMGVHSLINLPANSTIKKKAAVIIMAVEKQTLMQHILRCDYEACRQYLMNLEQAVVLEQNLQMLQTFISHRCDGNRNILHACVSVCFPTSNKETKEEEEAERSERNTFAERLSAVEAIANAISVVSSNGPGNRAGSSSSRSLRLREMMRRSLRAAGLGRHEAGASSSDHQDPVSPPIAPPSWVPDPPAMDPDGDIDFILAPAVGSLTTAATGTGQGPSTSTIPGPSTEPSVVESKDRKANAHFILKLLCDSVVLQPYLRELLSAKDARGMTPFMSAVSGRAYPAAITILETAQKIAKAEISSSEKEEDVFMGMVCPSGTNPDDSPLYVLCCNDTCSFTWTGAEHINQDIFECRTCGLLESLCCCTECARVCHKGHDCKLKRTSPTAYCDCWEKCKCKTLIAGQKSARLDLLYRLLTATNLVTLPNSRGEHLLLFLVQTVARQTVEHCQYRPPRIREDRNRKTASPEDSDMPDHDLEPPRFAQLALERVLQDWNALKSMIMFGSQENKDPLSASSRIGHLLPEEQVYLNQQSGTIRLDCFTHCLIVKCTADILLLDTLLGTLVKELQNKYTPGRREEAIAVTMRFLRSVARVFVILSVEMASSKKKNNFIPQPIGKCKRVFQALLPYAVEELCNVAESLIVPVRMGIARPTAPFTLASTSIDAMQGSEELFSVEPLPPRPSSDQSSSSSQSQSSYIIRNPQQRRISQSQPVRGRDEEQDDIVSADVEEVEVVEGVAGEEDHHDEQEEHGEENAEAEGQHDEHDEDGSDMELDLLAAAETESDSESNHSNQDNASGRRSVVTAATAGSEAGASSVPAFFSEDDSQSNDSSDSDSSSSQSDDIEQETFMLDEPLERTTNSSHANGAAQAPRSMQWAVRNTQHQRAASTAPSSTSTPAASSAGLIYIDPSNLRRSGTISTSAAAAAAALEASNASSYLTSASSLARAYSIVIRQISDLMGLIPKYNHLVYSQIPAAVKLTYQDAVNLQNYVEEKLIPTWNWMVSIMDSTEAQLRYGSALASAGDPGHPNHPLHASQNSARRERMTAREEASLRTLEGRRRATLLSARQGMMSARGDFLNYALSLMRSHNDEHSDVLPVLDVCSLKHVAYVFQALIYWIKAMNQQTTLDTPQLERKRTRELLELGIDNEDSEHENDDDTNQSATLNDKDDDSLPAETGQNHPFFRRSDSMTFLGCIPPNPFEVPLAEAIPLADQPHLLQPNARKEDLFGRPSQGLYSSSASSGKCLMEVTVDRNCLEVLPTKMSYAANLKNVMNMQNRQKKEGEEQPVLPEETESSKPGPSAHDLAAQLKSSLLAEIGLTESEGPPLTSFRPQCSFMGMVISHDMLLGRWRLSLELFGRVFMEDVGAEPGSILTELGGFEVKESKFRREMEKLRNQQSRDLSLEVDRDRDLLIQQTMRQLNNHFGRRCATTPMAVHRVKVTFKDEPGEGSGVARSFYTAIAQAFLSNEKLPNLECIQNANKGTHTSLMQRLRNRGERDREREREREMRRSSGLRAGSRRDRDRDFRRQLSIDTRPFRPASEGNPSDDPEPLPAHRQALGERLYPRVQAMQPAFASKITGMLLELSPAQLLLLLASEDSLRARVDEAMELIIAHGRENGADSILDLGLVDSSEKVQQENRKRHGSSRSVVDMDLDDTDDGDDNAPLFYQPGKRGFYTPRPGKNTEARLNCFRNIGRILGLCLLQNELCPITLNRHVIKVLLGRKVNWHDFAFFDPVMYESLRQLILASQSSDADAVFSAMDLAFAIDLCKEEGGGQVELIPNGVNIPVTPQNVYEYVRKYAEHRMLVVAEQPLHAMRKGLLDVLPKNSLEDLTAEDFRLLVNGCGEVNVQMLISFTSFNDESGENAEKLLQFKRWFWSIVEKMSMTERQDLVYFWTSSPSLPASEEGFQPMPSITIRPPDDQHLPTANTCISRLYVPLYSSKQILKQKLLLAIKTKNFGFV
UniProt Q15154: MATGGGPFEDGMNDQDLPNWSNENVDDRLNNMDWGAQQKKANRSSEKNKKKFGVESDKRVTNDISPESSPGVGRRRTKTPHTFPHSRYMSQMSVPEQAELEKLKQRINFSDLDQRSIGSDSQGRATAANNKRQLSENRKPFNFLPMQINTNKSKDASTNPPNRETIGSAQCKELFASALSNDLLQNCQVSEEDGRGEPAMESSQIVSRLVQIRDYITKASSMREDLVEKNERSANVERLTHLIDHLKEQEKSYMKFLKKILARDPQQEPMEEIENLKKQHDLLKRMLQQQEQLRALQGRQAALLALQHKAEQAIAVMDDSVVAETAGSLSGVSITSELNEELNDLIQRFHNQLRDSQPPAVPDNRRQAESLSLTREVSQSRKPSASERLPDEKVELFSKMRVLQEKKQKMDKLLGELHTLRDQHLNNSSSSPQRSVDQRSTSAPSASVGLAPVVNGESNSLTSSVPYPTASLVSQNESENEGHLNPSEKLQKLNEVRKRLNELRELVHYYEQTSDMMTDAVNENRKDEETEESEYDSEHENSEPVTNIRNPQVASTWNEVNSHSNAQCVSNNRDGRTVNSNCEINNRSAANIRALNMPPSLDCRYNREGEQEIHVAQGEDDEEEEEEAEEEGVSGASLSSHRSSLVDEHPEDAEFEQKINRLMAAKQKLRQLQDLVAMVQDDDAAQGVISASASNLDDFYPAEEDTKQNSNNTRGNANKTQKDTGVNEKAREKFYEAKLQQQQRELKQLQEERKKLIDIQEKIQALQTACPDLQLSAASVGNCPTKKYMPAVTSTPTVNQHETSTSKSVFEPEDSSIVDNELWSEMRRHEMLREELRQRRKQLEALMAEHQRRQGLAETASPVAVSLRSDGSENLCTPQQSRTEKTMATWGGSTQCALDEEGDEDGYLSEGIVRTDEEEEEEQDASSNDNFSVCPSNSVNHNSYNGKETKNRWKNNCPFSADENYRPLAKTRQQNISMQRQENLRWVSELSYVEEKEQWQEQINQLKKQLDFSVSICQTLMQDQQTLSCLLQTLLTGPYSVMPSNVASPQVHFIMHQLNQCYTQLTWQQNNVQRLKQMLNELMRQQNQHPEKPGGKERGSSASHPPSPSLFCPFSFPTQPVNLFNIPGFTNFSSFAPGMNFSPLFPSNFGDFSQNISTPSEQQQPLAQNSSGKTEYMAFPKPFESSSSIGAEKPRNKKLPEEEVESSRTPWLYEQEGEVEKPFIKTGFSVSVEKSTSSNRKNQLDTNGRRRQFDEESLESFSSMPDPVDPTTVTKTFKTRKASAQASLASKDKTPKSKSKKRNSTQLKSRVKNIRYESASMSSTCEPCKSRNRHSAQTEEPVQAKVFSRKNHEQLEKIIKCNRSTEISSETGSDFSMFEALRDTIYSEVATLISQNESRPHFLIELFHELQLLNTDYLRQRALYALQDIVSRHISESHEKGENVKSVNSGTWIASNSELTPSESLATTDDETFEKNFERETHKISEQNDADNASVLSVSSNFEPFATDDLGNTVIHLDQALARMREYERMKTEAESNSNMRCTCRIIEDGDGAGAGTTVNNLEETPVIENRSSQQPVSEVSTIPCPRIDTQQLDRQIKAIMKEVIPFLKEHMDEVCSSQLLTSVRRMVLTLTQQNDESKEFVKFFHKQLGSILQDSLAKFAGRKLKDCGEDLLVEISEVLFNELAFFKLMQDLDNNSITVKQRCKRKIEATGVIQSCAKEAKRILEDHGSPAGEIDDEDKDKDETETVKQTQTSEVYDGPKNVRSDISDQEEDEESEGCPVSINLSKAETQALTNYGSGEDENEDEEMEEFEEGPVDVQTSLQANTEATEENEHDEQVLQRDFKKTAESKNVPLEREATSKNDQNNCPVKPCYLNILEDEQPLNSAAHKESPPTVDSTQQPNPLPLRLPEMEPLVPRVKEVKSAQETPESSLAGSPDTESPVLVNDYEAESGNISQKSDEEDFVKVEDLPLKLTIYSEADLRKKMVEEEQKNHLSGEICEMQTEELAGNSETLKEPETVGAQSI

Target: GFP-UBR5 (wild-type) (UniProt O95071)
Assay: co-IP

- binding: no binding
Substance: PCM1 (pericentriolar material 1) (from UniProt Q15154 1-2024)
